# According to patent US20220119522A1:
# Results are given in words; binding and its absence hold for the method and conditions named. Some entries that bind do so weakly or less than the wild type.
# Assays:
# [1] = biological target: T1, human soluble TREM2 (sTREM2) (human) (UniProt Q9NZC2); test: MSD assay of antibody-bound sTREM2 in plasma of huTrem2 KI mice 24 hours after 100 mg/kg
# T1 sequence: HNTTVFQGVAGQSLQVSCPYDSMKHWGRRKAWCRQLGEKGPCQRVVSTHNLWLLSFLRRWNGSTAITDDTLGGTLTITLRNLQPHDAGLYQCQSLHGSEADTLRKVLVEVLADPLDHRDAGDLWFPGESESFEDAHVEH
# [2] = biological target: T1, human soluble TREM2 (sTREM2) (human); test: MSD immunoassay of antibody-bound sTREM2 in plasma of huTrem2 KI/KI mice 24 h after 100 mg/kg i.v., anti-TREM2 capture (MAB17291), sulfo-tagged anti-human detection, normalised to the pre-dose baseline
binder,measurement,setting,value
"CL0020141 (antibody, V domains shown) VH: EVTLVESGGGLVQPGGSLRLSCATSGFTFTDYYMSWVRQPPGKALEWLGFIRDKANGYTTDYSASVKGRFTISRDNSQNILYLQMNTLRAEDSATYYCSRLLRAQGFAYWGQGTLVTVSA VL: DIVMSQSPSSLGVSIGEKVIMSCTSGQSLLYSNNQKNYLAWYQQKPGQSPKLLIYWASTRESGVPDRFTGSGSGTDFTLTINSVKAEDLAVYYCQQYYRNPFTFGSGTKLEIK",binding,[1],binds
same,binding,[2],binds
